Drawing on PubChem BioAssay AID2685 (National Center for Advancing Translational Sciences (NCATS), 2010), this text covers cell number change and AC50 for 58 compounds.

The list shows a part of the results. The main result of the screen is listed elsewhere. These columns were measured beside it and carry no call. Compounds called inactive in the main read-out are mostly missing here. Words in brackets tell the shape of the fitted curve; partial curves, single points and poor fits give uncertain potencies.

By AC50 is commonly meant the midpoint of the concentration-response curve, whichever way the signal moves. High values mean activity only at high concentration, low ones activity at low concentration.

This assay can be described thus: qHTS Assay for Lipid Storage Modulators in Drosophila S3 Cells.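 On cell number change: cells counted by Cell Tracker Red CMTPX staining in the red channel.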 Particulars: BODIPY lipid droplet fluorescence, 18-24 h; for cell number change: measured here: cell count max response, cells fed with added oleic acid. In a few lines:
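Drosophila S3 cells loaded with oleic acid (400 uM, as added) and compounds at several concentrations; lipid droplets imaged by 488-nm laser-scanning cytometry, 500–530 nm intensity and object ratio to cell channel. Percent activity normalized to 20 uM Triacsin C.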
On the technique in general: In qHTS, concentration-response curves come from the screen itself.

The mark [1] stands for this setting: measured here: cell number channel AC50, cells fed with added oleic acid.
Where [2] appears, read: measured here: lipid fluorescence (Fed channel) AC50, cells fed with added oleic acid.

For `CCOC(=O)C(NS(=O)(=O)c1ccccc1)(C(F)(F)F)P(=O)(OCC(C)C)OCC(C)C` (stereo unspecified), the cell number change was -105%. For the same compound, the AC50 under setting [1] is 4.61 µM [falling, partial curve]. The concentration at half-maximal activity (AC50) under setting [2] was 0.58 µM [falling, full curve, poor fit].

As for `Cc1cc(=O)[nH]c(N/N=C/c2ccccc2C(F)(F)F)n1`, the cell number change came out at 36.3%. Moreover, the AC50 under setting [1] is 18.4 µM [rising, single point].

In the case of `COc1ccc(CCNC(=O)CSc2nc3[nH]ncc3c(=O)n2-c2ccc(Cl)cc2Cl)cc1OC`, the cell number change was -25.4%. Also, the AC50 under setting [2] was 29.1 µM [falling, single point].

For `O=C(NC1CCCCC1)C(c1ccc(O)cc1)N(CC1CCCO1)C(=O)C1COc2ccccc2O1` (stereo unspecified), the cell number change stood at 3.42%.

Turning to `CCOC(=O)C(NCCOC)(NC(C)=O)C(F)(F)F` (stereo unspecified), the cell number change is -3.2%. In addition, the AC50 under setting [2] was 1.46 µM [falling, full curve].

`CC1CCCCN1S(=O)(=O)c1ccc(S(=O)(=O)N(CC(=O)Nc2ccccc2)Cc2cccs2)cc1` (stereo unspecified): the cell number change was 0.963%. For the same compound, under setting [2], the AC50 was 29.1 µM [rising, single point].

In the case of `O=C(Nc1ccnn1C1CCN(Cc2cccc(OCCO)c2)CC1)C1CC1`, the cell number change was -2.93%. The concentration at half-maximal activity (AC50) under setting [2] is 25.9 µM [rising, single point].

`COc1ccc(-n2c(=O)[nH]cc(C(=O)Nc3ccc(NC(C)=O)cc3)c2=O)cc1`: the cell number change was -9.4%. Besides, the half-maximal activity concentration (AC50) under setting [2] is 1.64 µM [falling, partial curve].

For the compound `CSc1nc(-c2ccco2)nn1S(C)(=O)=O`, the cell number change was -7.01%. Besides, under setting [2], the AC50 is 5.8 µM [falling, partial curve].

As for `CCOC(=O)Nc1c(O)ccc2oc(C)c(-c3ccccc3)c12`, the cell number change was -8.75%. Under setting [2], the AC50 was 4.11 µM [rising, full curve, poor fit].

Turning to `CCNc1nc(NCC)nc(N/N=C/c2ccc(Br)cc2)n1`, the AC50 under setting [1] was 2.59 µM [rising, partial curve].

`O=C(CCC(=O)NC1CCCCCCC1)Nc1nnc(C(F)(F)F)s1`: the cell number change turned out to be 17.4%. In addition, under setting [2], the concentration at half-maximal activity (AC50) is 0.0058 µM [falling, full curve, poor fit].

For the compound `CCOc1ccc(N2C(=O)CN=C2Nc2ccccc2F)cc1`, the cell number change is -12.3%.

Turning to `CCn1c2ccccc2c2nnc(SCC(=O)Nc3ncccn3)nc21`, the cell number change was -8.24%. Also, the AC50 under setting [2] was 0.206 µM [rising, full curve, poor fit].

Regarding `O=C(c1c[nH]c(C(=O)C(Cl)(Cl)Cl)c1)c1ccccc1Cl`, the AC50 under setting [2] is 7.31 µM [falling, partial curve].

Take `Cc1cc(/C=C(\C#N)C(=O)NCc2ccco2)c(C)n1C1CCCC1`: the cell number change is 40.7%. The AC50 under setting [1] is 29.1 µM [rising, single point].

With `CCOc1ccccc1N(C)C(=O)c1ccc2c(=O)n3c(nc2c1)CCCCC3`, the cell number change is -68.3%. Moreover, under setting [1], the concentration at half-maximal activity (AC50) is 5.17 µM [falling, partial curve]. Moreover, under setting [2], the concentration at half-maximal activity (AC50) is 1.16 µM [falling, full curve].

With `CCOC(=O)C(C)On1c(-n2nc(C)cc2C)nc2ccccc2c1=O` (stereo unspecified), the cell number change was -3.6%. Also, the AC50 under setting [1] is 6.51 µM [rising, single point].

`CCC(C)(C)NC(=O)C(c1cccc(OC)c1OC)N(Cc1ccccc1)C(=O)CCC(=O)Nc1cc(C)on1` (stereo unspecified): the cell number change was 4.35%.

Turning to `Clc1cccc(-c2nc(NCc3cccnc3)c3ccccc3n2)c1`, the cell number change was found to be 115%. Under setting [1], the AC50 is 20.6 µM [rising, single point]. Under setting [2], the half-maximal activity concentration (AC50) was 29.1 µM [rising, partial curve].

Take `Cc1nnsc1C(=O)NNc1ccc(C(C)C)cc1`: the cell number change was 25.9%. The AC50 under setting [1] is 0.259 µM [rising, full curve, poor fit]. Further, the half-maximal activity concentration (AC50) under setting [2] is 2.31 µM [rising, partial curve].

Regarding `C/C=C/Cn1c(SCCCc2ccccc2)nc2c1c(=O)[nH]c(=O)n2C`, the cell number change was found to be 10.8%. Also, the concentration at half-maximal activity (AC50) under setting [2] was 4.61 µM [rising, full curve].

Turning to `NS(=O)(=O)c1cccc(NC(=O)CCSc2ccccc2Cl)c1`, the cell number change stood at 16.5%. For the same compound, the half-maximal activity concentration (AC50) under setting [2] is 2.06 µM [rising, partial curve].

Regarding `Cc1ccc(C(=O)N(C)CC(=O)Nc2ccc(N3CCOCC3)cc2)s1`, the cell number change worked out at 50%. Further, the half-maximal activity concentration (AC50) under setting [1] was 20.6 µM [rising, single point].

Turning to `O=C(Cn1c(NCCO)nc2ccccc21)N1CCN(Cc2ccccc2)CC1`, the AC50 is 0.164 µM [rising, full curve] under setting [1] and 0.13 µM [rising, full curve] under setting [2].

Take `COC(=O)CCCC(=O)N1CCCC(CNS(=O)(=O)c2ccc(OC)cc2)C1` (stereo unspecified): the cell number change was 8.54%. Besides, the AC50 under setting [2] is 0.0164 µM [rising, full curve, poor fit].

With `COc1cc(CNc2ccc3[nH]c(=O)[nH]c3c2)ccc1OCc1ccc(F)cc1`, the AC50 is 7.31 µM [falling, single point] under setting [1] and 8.2 µM [rising, partial curve] under setting [2].

Take `CC1(C)CC(=O)C(C2=NC(C)(C)Cc3ccccc32)=C(O)C1`: the cell number change was -8.71%.

Turning to `COc1ccc(/C(C)=C2/SC(=S)N(CCC(=O)O)C2=O)cc1`, the cell number change was found to be 87.1%. Also, the concentration at half-maximal activity (AC50) under setting [1] was 20.6 µM [rising, partial curve].

Turning to `O=C(c1ccc(Cl)cc1)N(Cc1ccc(Br)cc1)N1C(=O)CCC1=O`, the cell number change is 24.1%. The AC50 under setting [2] was 2.59 µM [rising, partial curve, poor fit].

For `CSc1ccc(CCNC(=O)C2CCN(c3nnc(-n4cccc4)s3)CC2)cc1`, the cell number change is 10.6%.

Take `O=C(NS(=O)(=O)c1ccccc1Cl)c1ccc[nH]1`: the cell number change is -22.2%. For the same compound, the AC50 under setting [2] is 0.58 µM [falling, full curve].

With `C(=N\n1cnnc1)/c1ccc(OCc2cccc3ccccc23)cc1`, the cell number change came to 36.5%. The concentration at half-maximal activity (AC50) under setting [1] is 29.1 µM [rising, single point]. Further, the concentration at half-maximal activity (AC50) under setting [2] is 0.206 µM [rising, full curve, poor fit].

On to `CN1Cc2cc(C(=O)c3ccccc3O)cnc2NC1=O`, for which the cell number change worked out at 15.9%.

With `CCOC(=O)COc1c(/C=N\O)cc(Cl)cc1OC`, the cell number change is -93.3%. In addition, the AC50 under setting [2] was 29.1 µM [falling, partial curve].

As to `N#CC1(NC(=O)CSc2n[nH]c(-c3ccccc3)n2)CCCCC1`, the cell number change is 41.9%. Also, the half-maximal activity concentration (AC50) under setting [1] was 10.3 µM [rising, partial curve, poor fit]. The AC50 under setting [2] was 18.4 µM [falling, single point].

With `CCN1CCN(CCCNC(=O)c2csc3c2CCCCC3)CC1`, the cell number change came to 8.88%. For the same compound, the half-maximal activity concentration (AC50) under setting [2] is 2.31 µM [falling, partial curve, poor fit].

For the compound `Cc1nccn1CCOc1ccccc1Cl`, the cell number change was 30.9%. The AC50 under setting [1] is 0.411 µM [rising, full curve, poor fit].

Consider `C=C(C(=O)Oc1ccccc1C(C)(C)C)c1ccccc1`, for which the cell number change was -49.3%. The AC50 under setting [1] is 8.2 µM [falling, single point]. Besides, the AC50 under setting [2] is 1.03 µM [falling, single point].

With `COc1ccc(/C=C2\N=C(C)N(c3ccc(C(=O)O)cc3)C2=O)cc1OC`, the cell number change is 98.3%. Further, the AC50 under setting [1] is 29.1 µM [rising, single point]. For the same compound, the half-maximal activity concentration (AC50) under setting [2] was 5.8 µM [falling, single point].

Take `COC(=O)c1ccccc1NC(=O)c1cn(-c2ccc(C)c(C)c2)c(=O)c2ccccc12`: the cell number change was -7.66%.

For `CC(C)CC(=O)Nc1cccc(NC(=O)c2ccccc2Cl)c1`, the AC50 under setting [2] was 0.146 µM [rising, partial curve, poor fit].

`CC(C)(C)c1ccc(C(=O)C2CCCN(C(=O)c3ccccn3)C2)cc1` (stereo unspecified): the cell number change is -23.9%.

For `Cc1ccc(OCCNC(=O)/C=C/c2ccccc2)cc1`, the cell number change was -49%. Moreover, the AC50 under setting [1] was 29.1 µM [falling, single point]. Moreover, the AC50 under setting [2] is 29.1 µM [falling, single point].

For `CN(C)C(=O)COc1ccc(C(=O)/C=C/c2cccnc2)cc1`, the cell number change is -5.71%.

As to `Cc1cc(C(=O)COc2ccc([N+](=O)[O-])cc2)c(C)n1C1CC1`, the cell number change was -39.5%. Moreover, the AC50 under setting [1] was 29.1 µM [falling, single point]. Besides, the AC50 under setting [2] is 0.116 µM [falling, full curve, poor fit].

As to `O=C1CCCCCN1Cc1ccccc1`, the half-maximal activity concentration (AC50) runs as follows: under setting [1], 0.13 µM [rising, full curve, poor fit]; under setting [2], 0.13 µM [rising, full curve, poor fit].

Turning to `CNC(=S)Nc1ccc(OC(F)(F)F)cc1`, the cell number change was 20.2%. In addition, the AC50 under setting [2] is 0.259 µM [falling, single point].

In the case of `O=C1c2cccc3c([N+](=O)[O-])ccc(c23)C(=O)N1c1ccc(Cl)cn1`, the cell number change is -96.2%. The AC50 under setting [1] is 29.1 µM [falling, single point]. Also, under setting [2], the AC50 was 29.1 µM [falling, single point].

`CCCN1C(=O)c2cc(C(=O)Nc3ccccc3OC)ccc2C1Nc1ccccc1OC` (stereo unspecified): the cell number change is -61.7%. Also, under setting [1], the AC50 is 29.1 µM [falling, single point]. Moreover, the AC50 under setting [2] was 29.1 µM [falling, single point].

Turning to `CS/C(=C(/C#N)S(=O)(=O)c1ccc(Cl)cc1)N1CCOCC1`, the cell number change was determined as 15.1%. Under setting [2], the AC50 is 6.51 µM [rising, single point].

As to `COc1ccc(NC(=O)c2cccc(N3C(=O)C4C5C=CC(C5)C4C3=O)c2)cc1Cl` (stereo unspecified), the cell number change was 8.73%. The AC50 under setting [2] was 29.1 µM [rising, single point].

As to `COc1ccccc1C1CC(=O)n2c(nc(-c3ccccc3)c2-c2ccccc2)S1` (stereo unspecified), the cell number change is 127%. Moreover, the concentration at half-maximal activity (AC50) under setting [1] was 23.1 µM [rising, single point]. Moreover, the AC50 under setting [2] was 11.6 µM [rising, partial curve].

On to `CN(Cc1c(F)cccc1Cl)C(=O)c1cnc2ccccc2n1`, for which the cell number change turned out to be 11.7%. Moreover, the AC50 under setting [2] was 0.651 µM [falling, full curve, poor fit].

For the compound `CCOC(=O)N1CCN(C(=O)c2ccc(N(Cc3ccc(Cl)cc3)S(C)(=O)=O)cc2)CC1`, the AC50 under setting [2] is 20.6 µM [falling, single point].

Turning to `Cc1nn(C)cc1S(=O)(=O)NCc1ccc2c(c1)OCO2`, the cell number change worked out at 18.2%. The AC50 under setting [2] was 3.66 µM [falling, single point].

On to `O=C(Cn1cc(C(=O)C2CCCCC2)c2ccccc21)NCC1CCCO1` (stereo unspecified), for which the cell number change was found to be 2.64%.

With `CCOC(=O)c1sc(Nc2ccc(Br)cc2)nc1C`, the cell number change is -40%. In addition, the half-maximal activity concentration (AC50) under setting [1] was 29.1 µM [falling, single point]. Moreover, under setting [2], the AC50 was 32.6 µM [falling, single point].
